Experimental data reported in the supplement of paper PMC4604168 (melanoma cell lines).
The other results are listed elsewhere or left out. Repeats are few or missing, and single values can be far off.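 Cells were imaged in 1,536-well plates, and nuclei stained with an antibody against cleaved PARP were counted against all DNA-stained nuclei to give the apoptosis fraction. Screening doses were chosen to leave most cells alive, and resting and induced cleaved-PARP levels differ strongly between cell lines.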

Experiments:
Assay in all cases: cleaved PARP positive nuclei fraction relative to DMSO control; melanoma cells; higher = more apoptosis
Settings in all cases: library dose: low library concentration; 72 h
501Mel = system: 501Mel
A101D = system: A101D
A2058 = system: A2058
A375 = system: A375
C32 = system: C32
CBRC013 = system: CBRC013 (line from a melanoma biopsy)
CBRC014 = system: CBRC014 (line from a melanoma biopsy)
CBRC016 = system: CBRC016 (line from a melanoma biopsy)
CBRC017 = system: CBRC017 (line from a melanoma biopsy)
CBRC034 = system: CBRC034 (line from a melanoma biopsy)
COLO792 = system: COLO792
COLO800 = system: COLO800
COLO829 = system: COLO829
G361 = system: G361
IPC-298 = system: IPC-298
IST-MEL1 = system: IST-MEL1
LB2518-MEL = system: LB2518-MEL
LOXIMVI = system: LOXIMVI

| SMILES | cleaved PARP positive nuclei fraction (501Mel) | cleaved PARP positive nuclei fraction (A101D) | cleaved PARP positive nuclei fraction (A2058) | cleaved PARP positive nuclei fraction (A375) | cleaved PARP positive nuclei fraction (C32) | cleaved PARP positive nuclei fraction (CBRC013) | cleaved PARP positive nuclei fraction (CBRC014) | cleaved PARP positive nuclei fraction (CBRC016) | cleaved PARP positive nuclei fraction (CBRC017) | cleaved PARP positive nuclei fraction (CBRC034) | cleaved PARP positive nuclei fraction (COLO792) | cleaved PARP positive nuclei fraction (COLO800) | cleaved PARP positive nuclei fraction (COLO829) | cleaved PARP positive nuclei fraction (G361) | cleaved PARP positive nuclei fraction (IPC-298) | cleaved PARP positive nuclei fraction (IST-MEL1) | cleaved PARP positive nuclei fraction (LB2518-MEL) | cleaved PARP positive nuclei fraction (LOXIMVI) |
| --- | --- | --- | --- | --- | --- | --- | --- | --- | --- | --- | --- | --- | --- | --- | --- | --- | --- | --- |
| O=C(CCCCCCC(=O)Nc1ccccc1)NO [vorinostat] + O=C(Nc1ccccc1)c1cc([N+](=O)[O-])ccc1Cl [GW9662] (first compound 0.08 µM, partner dose 2 µM) | 80.2% | 113% | 128% | 15.8% | 51.9% | 44.1% | 89.7% | 86.8% | 104% | 99.2% | 80.8% | 122% | 110% | 57.8% | 85% | 55.9% | 91.8% | 35.3% |
| O=C(Nc1cccc(Cl)c1)Nc1ncc(CCNc2ncnc3ccsc23)s1 + N#Cc1c(O)c2c(-c3ccc(-c4ccccc4O)cc3)csc2[nH]c1=O [A769662] (first compound 0.0008 µM, partner dose 2 µM) | 68.4% | 113% | 159% | 153% | 368% | 177% | 84.8% | 66.8% | 70% | 85.4% | 159% | 111% | 68.7% | 109% | 41.3% | 60.2% | 160% | 71.6% |
| C#Cc1cccc(Nc2ncnc3cc(OCCOC)c(OCCOC)cc23)c1 [erlotinib] + COc1ccc(-c2ccc3c(N4CCOCC4)nc(N4C[C@@H](C)O[C@@H](C)C4)nc3n2)cc1CO [KU0063794] (first compound 0.8 µM, partner dose 0.02 µM) | 48.7% | 128% | 71.6% | 118% | 125% | 140% | 115% | 66.8% | 212% | 46% | 148% | 174% | 85.9% | 186% | 158% | 189% | 86.8% | 71.1% |
| C=CCn1c(=O)c2cnc(Nc3ccc(N4CCN(C)CC4)cc3)nc2n1-c1cccc(C(C)(C)O)n1 + COC(=O)c1sccc1S(=O)(=O)Nc1ccc(Nc2ccccc2)cc1OC [GSK0660] (first compound 0.02 µM, partner dose 1 µM) | 147% | 106% | 56.2% | 380% | 57.4% | 83.9% | 111% | 105% | 95% | 127% | 181% | 220% | 83.1% | 65.3% | 71.1% | 108% | 171% | 105% |
| Cc1nc(Nc2ncc(C(=O)Nc3c(C)cccc3Cl)s2)cc(N2CCN(CCO)CC2)n1 [dasatanib] + c1cc(-c2cnn3cc(-c4ccc(OCCN5CCCCC5)cc4)cnc23)ccn1 [Dorsomorphin] (first compound 0.004 µM, partner dose 0.4 µM) | 85.1% | 86% | 130% | 279% | 55.1% | 255% | 116% | 42.8% | 90.9% | 133% | 206% | 79.3% | 176% | 40.5% | 182% | 212% | 119% | 50.7% |
| C=CCn1c(=O)c2cnc(Nc3ccc(N4CCN(C)CC4)cc3)nc2n1-c1cccc(C(C)(C)O)n1 + O=C1NC(=O)/C(=C/c2ccc(-c3ccc(F)cc3O)o2)S1 [AS252424] (first compound 0.02 µM, partner dose 1 µM) | 71.4% | 176% | 43.7% | 208% | 94.7% | 534% | 113% | 118% | 78.2% | 29.8% | 102% | 110% | 141% | 104% | 85.4% | 59.7% | 185% | 73.2% |
| C#Cc1cccc(Nc2ncnc3cc(OCCOC)c(OCCOC)cc23)c1 [erlotinib] + Oc1cc(-c2nc(-c3ccccc3)[nH]c2-c2ccncc2)ccc1Cl [L779450] (first compound 0.8 µM, partner dose 0.2 µM) | 87.3% | 119% | 65.1% | 396% | 52.2% | 102% | 92.5% | 95.5% | 72.7% | 63.2% | 104% | 20.6% | 103% | 117% | 234% | 120% | 131% | 69.9% |
| O=C(Nc1cccc(Cl)c1)Nc1ncc(CCNc2ncnc3ccsc23)s1 + CC(C)CCN1c2nc(Nc3cc(F)c(O)c(F)c3)ncc2N(C)C(=O)C1C [BID1870] (first compound 0.0008 µM, partner dose 0.2 µM) | 71.9% | 141% | 86.1% | 144% | 156% | 52.7% | 125% | 134% | 92.3% | 103% | 63% | 35.4% | 99% | 141% | 41.5% | 52% | 76.8% | 29.7% |
| C[C@@H]1CCN(C(=O)CC#N)C[C@@H]1N(C)c1ncnc2[nH]ccc12 + O=c1cc(-c2cccc3c2Sc2ccccc2S3)oc(N2CCOCC2)c1 [KU55933] (first compound 1 µM, partner dose 1 µM) | 193% | 109% | 46.4% | 65.9% | 230% | 226% | 96% | 109% | 99.1% | 264% | 122% | 103% | 119% | 180% | 88.4% | 55.6% | 78.6% | 83.9% |
